The target of assay [1] is SOCS2-GFP (human suppressor of cytokine signaling 2 fused to green fluorescent protein) (human) (UniProt O14508). Put plainly: co-IP; ARPE-19 cells transiently transfected with GFP control vectors or SOCS2-GFP plasmids, starved; which protein was precipitated is not told; no methods for the immunoprecipitation.
Assay [2] addresses lysosome-associated membrane protein2 (LAMP2) (human (endogenous in ARPE-19)) (UniProt P13473). Put plainly: proximity ligation; Duolink in situ fluorescence on serum-starved ARPE-19 cells fixed with 4% paraformaldehyde; endogenous proteins, antibodies to SOCS2 and to ubiquitin or LAMP2; negative group without antibodies.

Chains of the proteins cited; added tags and fusions are not shown. Residues count along the entry.
UniProt P13473, residues 29-410: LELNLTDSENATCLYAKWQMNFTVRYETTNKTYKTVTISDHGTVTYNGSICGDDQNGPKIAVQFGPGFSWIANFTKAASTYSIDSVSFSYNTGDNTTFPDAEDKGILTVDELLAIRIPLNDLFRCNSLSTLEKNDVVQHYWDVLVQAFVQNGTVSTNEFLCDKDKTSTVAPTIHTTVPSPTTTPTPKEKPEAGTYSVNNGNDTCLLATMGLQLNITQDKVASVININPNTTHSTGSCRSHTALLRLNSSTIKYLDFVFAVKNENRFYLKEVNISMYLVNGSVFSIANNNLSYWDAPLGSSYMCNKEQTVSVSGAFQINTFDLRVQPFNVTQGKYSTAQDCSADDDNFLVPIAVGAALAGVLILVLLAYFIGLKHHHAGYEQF

No constants are given. Whether binding was seen depends on the method and setting. Binding seen in cells or lysates may run through a third protein. Some entries that bind do so weakly or less than the wild type.

As for “sequestosome 1 (SQSTM1/p62) (from UniProt Q13501 1-440)”, the binding result in assay [1] is “binds”.

“suppressor of cytokine signaling 2 (SOCS2), endogenous (from UniProt O14508 1-198)”: the binding result in assay [2] is given as “binds”.

Values taken from paper PMC8606588.
